Measured data: PubChem BioAssay AID1224830 (NIAID, 2016)
The whole screen tested about 18,000 reagents; this is an unselected part. About 2,900 of all reagents (16%) were called active. 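Calls are made per well; low scores hint the gene aids the LPS response, high scores that it dampens it.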 Unmarked entries are inactive. Repeated entries: four replicate wells of each siRNA pool.

- Screen: 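Regulators of TLR4 signalling towards TNF-alpha in macrophage-like cells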 (primary screen)
- Cells: human THP-1 monocytic leukaemia cells, TNF dual-luciferase reporter clone, PMA-differentiated to macrophage-like cells
- Reagent: siRNA pool against human genes, 50 nM
- Timing: LPS for 4 h, given about 3 days after siRNA transfection
- Challenge: bacterial LPS (TLR4 ligand), 10 ng/ml
- Measured: 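TNF firefly reporter luminescence divided by renilla, normalised to the plate median, then turned into a robust z-score for each replicate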
- Scale: TNF reporter robust z-score: higher = stronger TNF reporter response to LPS
- Hit rule: 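Each well counts as active if its z-score is over 2.8 or under -1.5; controls are left without a call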

| gene | TNF reporter robust z-score |
| --- | --- |
| ZNF287 (zinc finger protein 287) | -0.39 |
| ZNF287 (zinc finger protein 287) | -0.17 |
| ZNF287 (zinc finger protein 287) | -0.51 |
| ZNF287 (zinc finger protein 287) | -0.54 |
| SOX6 (SRY-box transcription factor 6) | -0.41 |
| SOX6 (SRY-box transcription factor 6) | 0.18 |
| SOX6 (SRY-box transcription factor 6) | -0.79 |
| SOX6 (SRY-box transcription factor 6) | 1.53 |
| TMEM80 (transmembrane protein 80) | 0.32 |
| TMEM80 (transmembrane protein 80) | 1.33 |
| TMEM80 (transmembrane protein 80) | 0.71 |
| TMEM80 (transmembrane protein 80) | 1 |
| ANGPTL6 (angiopoietin like 6) | -0.17 |
| ANGPTL6 (angiopoietin like 6) | -0.6 |
| ANGPTL6 (angiopoietin like 6) | -0.52 |
| ANGPTL6 (angiopoietin like 6) | 1.05 |
| SH2D3C (SH2 domain containing 3C) | -0.56 |
| SH2D3C (SH2 domain containing 3C) | 0.67 |
| SH2D3C (SH2 domain containing 3C) | 0.51 |
| SH2D3C (SH2 domain containing 3C) | 0.62 |
| FBXO17 (F-box protein 17) | 1.3 |
| FBXO17 (F-box protein 17) | -0.47 |
| FBXO17 (F-box protein 17) | 0.09 |
| FBXO17 (F-box protein 17) | 2.87 (active) |
| INKA1 (inka box actin regulator 1) | 0.48 |
| INKA1 (inka box actin regulator 1) | -0.42 |
| INKA1 (inka box actin regulator 1) | -0.6 |
| INKA1 (inka box actin regulator 1) | 0.24 |
| IL11RA (interleukin 11 receptor subunit alpha) | 0.36 |
| IL11RA (interleukin 11 receptor subunit alpha) | 0.34 |
| IL11RA (interleukin 11 receptor subunit alpha) | 0.03 |
| IL11RA (interleukin 11 receptor subunit alpha) | 1.06 |

Ordered by “TNF reporter robust z-score” (highest first): some entries from above
| gene | TNF reporter robust z-score |
| --- | --- |
| ANGPTL6 (angiopoietin like 6) | 1.05 |
| SH2D3C (SH2 domain containing 3C) | 0.67 |
| SH2D3C (SH2 domain containing 3C) | 0.62 |
| SH2D3C (SH2 domain containing 3C) | 0.51 |
| ANGPTL6 (angiopoietin like 6) | -0.52 |
| SH2D3C (SH2 domain containing 3C) | -0.56 |
| ANGPTL6 (angiopoietin like 6) | -0.6 |

The list goes on.
| gene | TNF reporter robust z-score |
| --- | --- |
| CHRNA7 (cholinergic receptor nicotinic alpha 7 subunit) | -1.19 |
| CHRNA7 (cholinergic receptor nicotinic alpha 7 subunit) | 0.01 |
| CHRNA7 (cholinergic receptor nicotinic alpha 7 subunit) | 0.22 |
| CHRNA7 (cholinergic receptor nicotinic alpha 7 subunit) | -0.33 |
| ZNF695 (zinc finger protein 695) | -1.18 |
| ZNF695 (zinc finger protein 695) | 0.55 |
| ZNF695 (zinc finger protein 695) | -0.3 |
| ZNF695 (zinc finger protein 695) | -0.75 |
| TEX29 (testis expressed 29) | 1.04 |
| TEX29 (testis expressed 29) | -0.24 |
| TEX29 (testis expressed 29) | 0.5 |
| TEX29 (testis expressed 29) | 1.12 |
| C7orf33 (chromosome 7 open reading frame 33) | 0.07 |
| C7orf33 (chromosome 7 open reading frame 33) | 0.91 |
| C7orf33 (chromosome 7 open reading frame 33) | -0.31 |
| C7orf33 (chromosome 7 open reading frame 33) | 0.4 |
